# Assay results from the supplement of paper PMC12889115.
# The other results are listed elsewhere or left out. These are raw signals, not scaled to a control.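 First-pass screen: polymyxin B was added at a level that permeabilizes the Salmonella outer membrane while sparing the inner membrane. DMSO wells, with and without polymyxin B, defined maximum growth. Because plates differed from one another, each plate's data were ranked separately and the compounds with the lowest OD600 were carried forward as hits.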
# System: Salmonella enterica serovar Typhimurium SL1344
# Assay: bacterial growth OD600 after 18 h with compound and polymyxin B; higher = more bacterial growth (less inhibition)
# Settings: 50 µM, Mueller-Hinton broth
SMILES,bacterial growth OD600 (polymyxin B 0.75 µg/mL),bacterial growth OD600 (polymyxin B 1 µg/mL)
CCN1CCC(CC(=O)N2CCCC(CCc3cccc(F)c3)C2)CC1 (centres undefined),0.674,–
Cc1ccccc1CCN1CCCC(CN(C)C(=O)CCN2CCCC2=O)C1 (centres undefined),–,0.819
Cc1c(CC(=O)N2CCNC(=O)C2)c2c(n1Cc1ccccc1F)CCCC2=O,–,1.16
COc1ccc(F)c(CN2CCCC3(CCN(C(=O)C4CCCC4)C3)C2)c1 (centres undefined),–,0.912
COCCNC(=O)c1ccc(OC2CCN(CC3CCOC(C)(C)C3)CC2)c(Cl)c1 (centres undefined),–,0.935
CCc1csc(CNC(=O)c2ccc(N(C)CC)nc2)n1,–,0.88
CCCCN(Cc1ccccc1)C(=O)CCC1(Cc2cc(OC)ccc2F)CCC(=O)N1 (centres undefined),0.633,–
CC1CN(Cc2cccc(OCCO)c2)Cc2cc(Cl)ccc2O1 (centres undefined),0.486,–
CC(C)CN1CC(C(=O)N2CCOc3ccc(CN4CCN(c5ccccc5)CC4)cc3C2)CC1=O (centres undefined),0.889,–
CC(C(=O)N1CCc2onc(-c3ccc(-c4ccccc4)cc3)c2C1)n1cncn1 (centres undefined),0.584,–
COc1cc(/C=C/CN2CCC(Oc3ccccc3C(=O)N3CCCC3)CC2)ccc1O,0.776,–
COCCN1CCN(C(=O)CC2c3ccccc3CCc3ccccc32)CC1,–,0.779
CCOC(=O)N1CCC(NC(=O)C2CC(Cc3ccc(OC)cc3)=NO2)CC1 (centres undefined),0.877,–
O=C(CC(F)(F)F)N1CCC(C2CCN(c3ncccn3)CC2)C1 (centres undefined),0.953,–
CCC1CN(CC(=O)NC(C)COC)Cc2cc(OC)ccc2O1 (centres undefined),0.983,–
CCCCn1c(CN(C)Cc2ccc(C)o2)cnc1S(=O)(=O)CC1CCC1,–,0.289
COc1ccc(CC(=O)NCC2CCCN(Cc3cc(OC)cc(OC)c3)C2)cc1 (centres undefined),0.809,–
COc1cccc(CN2C(=O)NC(C)(C3CCN(C(=O)/C=C/C(C)C)CC3)C2=O)c1OC (centres undefined),0.946,–
COCCC(=O)N1CCC(Oc2ccc(C(=O)NC3CCOC(C)(C)C3)cc2)CC1 (centres undefined),–,1.01

# Look-ups from above.
# bacterial growth OD600 (polymyxin B 0.75 µg/mL) with CCOC(=O)N1CCC(NC(=O)C2CC(Cc3ccc(OC)cc3)=NO2)CC1 (centres undefined) is entered as 0.877
# bacterial growth OD600 (polymyxin B 0.75 µg/mL) with CCN1CCC(CC(=O)N2CCCC(CCc3cccc(F)c3)C2)CC1 (centres undefined) is entered as 0.674
